PMC12470938

Molecular target: T1, Rme1 (Trichoderma reesei) (UniProt G0RR27)
T1 sequence (looked up): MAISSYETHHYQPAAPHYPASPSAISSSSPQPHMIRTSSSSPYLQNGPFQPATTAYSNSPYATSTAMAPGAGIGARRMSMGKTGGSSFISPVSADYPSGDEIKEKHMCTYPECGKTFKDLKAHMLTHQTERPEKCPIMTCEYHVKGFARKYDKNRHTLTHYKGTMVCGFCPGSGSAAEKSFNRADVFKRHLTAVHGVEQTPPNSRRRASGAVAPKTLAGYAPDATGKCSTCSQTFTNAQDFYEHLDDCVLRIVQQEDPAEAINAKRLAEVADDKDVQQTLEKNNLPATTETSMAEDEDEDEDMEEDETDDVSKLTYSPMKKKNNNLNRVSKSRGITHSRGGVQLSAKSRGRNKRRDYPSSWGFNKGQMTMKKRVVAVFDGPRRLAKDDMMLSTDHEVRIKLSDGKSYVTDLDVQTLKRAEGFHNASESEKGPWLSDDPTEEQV
Assay: EMSA
Conditions: 50 µM zinc sulfate, retardation occurs upon addition of 1.6 µM Rme1, 20 mM Tris-HCl pH 7.4, 50 mM KCl, 5% glycerol, 1 mM DTT, 50 µg/mL BSA, 100 ng probe, 25 min at room temperature, 6% native PAGE at 4 °C, recombinant protein, residues 83-525, protein details: GST (pGEX-4T-1, N-terminal by vector), label: none (SYBR Gold stain), probe letters rebuilt from the primers and the genome

TTCGATTCGTAGCATGGGCGCCAGGGAGGGCAAGTGCGGGAGTACGTGGTGTGCGTACCGTGCTGTACCTGGGAGGGCGGTACTTGTGGGCAAGTACCCCGACCGCACCACCGCGAAGCACATGCTGCGGTCGCTACACGGGGCGGTAAATCAGGGGCGTCACGCAGGGCTTAGGCAGCGACATTTGGGGGTGCAACAGCGCTGCATGCCACCGTCCAGTGGCTCGATGGCGCGATGGGGCGCTGGAAGGACGAGGGGGGCAGAGGGACGGGACACGTCGCCAGGGCTCAGAGACGGCCAGAAAGGGGGCACGGGGTACTTGTCGGCTCTCAGACGGTTGTACCTCGC (double strand) [Pcre1 probe]
binding result: binds

Protein sequences can lack the tags named with them.
